Measured values reported in PubChem BioAssay AID1347075 (National Center for Advancing Translational Sciences (NCATS), 2019).
In all, about 400,000 compounds went through this assay and about 5,500 (1.4%) were called active. The shares of active, inactive and inconclusive entries below differ from those in the screen. Calls follow the shape of the dose curve; as a rule, active = well fitted cell-killing curve with a large enough effect; inconclusive = small, poorly fitted or top-dose-only effect, or effect the other way; inactive = flat fitted curve, though single readings scatter. Where the call is inconclusive, the potency comes from a doubtful curve fit.

Assay: qHTS assay for MDR1-selective chemotherapeutics: Primary screen using the parental adenocarcinoma cell KB-3-1; also: nearly all actives have a fitted effect of over 60% in size
Conditions: KB-3-1 viability, CellTiter-Glo ATP luminescence, 72 h; series mostly up to 46.1 µM
In short: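 Multi-concentration cytotoxicity screen in KB-3-1 cells grown in DMEM lacking phenol red with 10% FBS. After 72 h at 37 °C with compound, ATP-dependent luminescence was recorded.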
Potency is read from the fitted curve at half-maximal effect.

SMILES	Potency
CN(C)/C=C1\N=C(c2ccc(Cl)cc2Cl)OC1=O	inconclusive: 5.17 µM [cytotoxic, partial curve, poor fit]
COc1ccc(/C=C/C(=O)NC(=S)NNC(=O)Cc2cccs2)cc1	inconclusive: 23.1 µM [cytotoxic, partial curve, poor fit]
Cn1cccc1/C=C(/C#N)c1ccc(F)cc1	inactive
Cc1cc(NC(=O)CCCS(=O)(=O)c2nc(-c3cccs3)cc(C(F)(F)F)n2)no1	active: 13 µM
Cn1c(=O)c2c(-c3ccccc3)n(CCCO)cc2n(C)c1=O	inactive
Nc1ccccc1N=Cc1ccc(-c2cccc(Cl)c2)o1	inconclusive: 16.4 µM [cytotoxic, single point]
NC(=O)CSc1nc2sc3c(c2c2ncnn12)CCCC3	inconclusive: 32.6 µM [rising, partial curve, poor fit]
COc1ccc(C(=O)Nc2ccc(NC(=O)c3cc(OC)c(OC)c(OC)c3)cn2)cc1	inactive
COC(=O)c1cc(Sc2cccc(Cl)c2Cl)ccn1	inactive
CC(=O)Nc1nnc2n1CCS2	inactive
CCOC(=O)N1CCN(CC(=O)Nc2c(C(=O)OC)[nH]c3ccc(Cl)cc23)CC1	active: 16.4 µM
CCC[n+]1c2ccccc2cc2ccccc21	inconclusive: 23.1 µM [cytotoxic, single point]
Cc1ccc(C)c(NC(=O)/C(C#N)=C/c2ccc(C(C)C)cc2)c1	inactive
Cc1occc1-c1nnc(SCC(=O)NCCc2ccccc2)o1	inconclusive: 29.1 µM [rising, single point]
CCc1ccc(S(=O)(=O)Nc2cc(SCC(=O)O)c(O)c3ccccc23)cc1	inconclusive: 29.1 µM [cytotoxic, single point]
CCN(C(=O)COC(=O)c1c2c(nc3ccccc13)/C(=C/c1ccccc1)CC(C)C2)C1CCS(=O)(=O)C1 (stereo unspecified)	inconclusive: 20.6 µM [cytotoxic, single point]
O=C(Nc1cccnc1)c1ccccc1NS(=O)(=O)c1ccc(F)cc1	inconclusive: 20.6 µM [cytotoxic, single point]
O=c1c2[nH]c3ccccc3c2ncn1C1CCCCC1	inactive
O=S(=O)(c1ccccc1)c1cnn(-c2ccccc2)c1-c1ccc(F)cc1	inconclusive: 35.5 µM [cytotoxic, single point]
CCOC(=O)c1ccc(N2C(=O)c3n[nH]c(-c4ccco4)c3C2c2ccc(C(=O)OC)cc2)cc1 (stereo unspecified)	inconclusive: 29.1 µM [cytotoxic, single point]
O=C(NNc1ccccc1Cl)C(O)(c1cccc(C(F)(F)F)c1)c1cccc(C(F)(F)F)c1	inconclusive: 29.1 µM [cytotoxic, single point]

Three structures out of the list, sorted by length of the SMILES, rising:
SMILES	Potency
CCC[n+]1c2ccccc2cc2ccccc21	inconclusive: 23.1 µM [cytotoxic, single point]
Cc1occc1-c1nnc(SCC(=O)NCCc2ccccc2)o1	inconclusive: 29.1 µM [rising, single point]
Cc1cc(NC(=O)CCCS(=O)(=O)c2nc(-c3cccs3)cc(C(F)(F)F)n2)no1	active: 13 µM
